These are yes or no findings as the source states them, for the method shown. Binding seen in cells or lysates may run through a third protein. Some results given as binding are weak or reduced against the parent protein; the word gives no strength.

Amino acid sequences for entries named in this document (tags omitted).
UniProt Q9H7D7: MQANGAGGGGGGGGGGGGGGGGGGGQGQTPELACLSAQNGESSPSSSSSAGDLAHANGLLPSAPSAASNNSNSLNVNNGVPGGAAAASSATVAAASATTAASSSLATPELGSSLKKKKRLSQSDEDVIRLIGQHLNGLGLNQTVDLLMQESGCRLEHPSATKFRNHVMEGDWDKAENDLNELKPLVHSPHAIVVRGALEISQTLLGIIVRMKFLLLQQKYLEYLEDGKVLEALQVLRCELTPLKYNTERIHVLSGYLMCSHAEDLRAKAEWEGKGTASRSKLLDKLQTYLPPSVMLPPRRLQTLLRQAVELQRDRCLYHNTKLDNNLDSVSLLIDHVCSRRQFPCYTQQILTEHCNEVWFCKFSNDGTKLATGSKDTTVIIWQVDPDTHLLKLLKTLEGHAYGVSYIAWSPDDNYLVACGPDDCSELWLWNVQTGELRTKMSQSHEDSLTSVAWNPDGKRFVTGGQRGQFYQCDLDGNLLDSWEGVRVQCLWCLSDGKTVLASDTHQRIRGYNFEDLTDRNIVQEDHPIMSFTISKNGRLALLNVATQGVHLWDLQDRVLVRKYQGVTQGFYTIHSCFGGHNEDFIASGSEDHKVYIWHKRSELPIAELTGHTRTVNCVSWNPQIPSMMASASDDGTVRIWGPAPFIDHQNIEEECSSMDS

Assay [1] addresses WDR26 (endogenous) (human) (UniProt Q9H7D7). Put plainly: co-immunoprecipitation, western blot (FIG. 11b). Background: In western blotting, separated proteins are transferred to a membrane and probed.
Assay [2] shares this target. As to the kind of experiment: co-immunoprecipitation of the endogenous proteins from MCF10A and CA1D cells, western blot.

B1: NOLC1 (also known as Nopp140) (protein, human, UniProt Q14978 1-699, looked up)
chain: MADAGIRRVVPSDLYPLVLGFLRDNQLSEVANKFAKATGATQQDANASSLLDIYSFWLKSAKVPERKLQANGPVAKKAKKKASSSDSEDSSEEEEEVQGPPAKKAAVPAKRVGLPPGKAAAKASESSSSEESSDDDDEEDQKKQPVQKGVKPQAKAAKAPPKKAKSSDSDSDSSSEDEPPKNQKPKITPVTVKAQTKAPPKPARAAPKIANGKAASSSSSSSSSSSSDDSEEEKAAATPKKTVPKKQVVAKAPVKAATTPTRKSSSSEDSSSDEEEEQKKPMKNKPGPYSSVPPPSAPPPKKSLGTQPPKKAVEKQQPVESSEDSSDESDSSSEEEKKPPTKAVVSKATTKPPPAKKAAESSSDSSDSDSSEDDEAPSKPAGTTKNSSNKPAVTTKSPAVKPAAAPKQPVGGGQKLLTRKADSSSSEEESSSSEEEKTKKMVATTKPKATAKAALSLPAKQAPQGSRDSSSDSDSSSSEEEEEKTSKSAVKKKPQKVAGGAAPSKPASAKKGKAESSNSSSSDDSSEEEEEKLKGKGSPRPQAPKANGTSALTAQNGKAAKNSEEEEEEKKKAAVVVSKSGSLKKRKQNEAAKEAETPQAKKIKLQTPNTFPKRKKGEKRASSPFRRVREEEIEVDSRVADNSFDAKRGAAGDWGERANQVLKFTKGKSFRHEKTKKKRGSYRGGSISVQVNSIKFDSE
For B1, the binding result in assay [1] and in assay [2] was “binds” each time.

Source of the values: patent US20230057430A1.
